Laboratory results from publication doi:10.1101/2022.09.12.507573.
Where two headings read alike, the source gives them in different places. Results are given in words; binding and its absence hold for the method and conditions named. For some assays here: Binding can be weak; no strength is given.

Chains of the proteins cited; added tags and fusions are not shown. Lines headed by an entry give the natural chain unless they say otherwise; changes in a name come on top.
UniProt P60953: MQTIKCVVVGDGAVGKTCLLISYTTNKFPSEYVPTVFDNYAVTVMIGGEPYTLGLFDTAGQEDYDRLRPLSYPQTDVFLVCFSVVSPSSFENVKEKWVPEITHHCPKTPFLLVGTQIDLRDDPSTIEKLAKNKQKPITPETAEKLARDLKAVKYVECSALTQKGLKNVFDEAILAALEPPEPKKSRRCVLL
UniProt P61586: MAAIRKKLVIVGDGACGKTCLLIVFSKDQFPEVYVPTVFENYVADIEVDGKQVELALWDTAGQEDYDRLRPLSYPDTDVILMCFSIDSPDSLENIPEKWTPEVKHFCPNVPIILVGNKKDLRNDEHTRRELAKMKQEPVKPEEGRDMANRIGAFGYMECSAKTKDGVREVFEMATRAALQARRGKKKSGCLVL
UniProt P42768: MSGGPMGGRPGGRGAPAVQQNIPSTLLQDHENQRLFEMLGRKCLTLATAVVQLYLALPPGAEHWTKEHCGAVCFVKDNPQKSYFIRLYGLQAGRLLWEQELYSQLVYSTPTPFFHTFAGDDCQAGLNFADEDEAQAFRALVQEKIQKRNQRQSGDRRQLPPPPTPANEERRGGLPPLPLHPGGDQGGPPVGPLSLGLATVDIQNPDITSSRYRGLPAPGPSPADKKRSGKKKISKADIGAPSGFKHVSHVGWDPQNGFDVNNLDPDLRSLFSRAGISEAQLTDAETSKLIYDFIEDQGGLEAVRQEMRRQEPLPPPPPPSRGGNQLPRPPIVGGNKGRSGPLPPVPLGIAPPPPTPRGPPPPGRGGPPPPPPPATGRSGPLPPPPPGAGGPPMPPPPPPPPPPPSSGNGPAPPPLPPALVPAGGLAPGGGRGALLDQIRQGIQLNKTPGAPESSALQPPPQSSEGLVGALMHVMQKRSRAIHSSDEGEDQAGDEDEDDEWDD
UniProt Q13153: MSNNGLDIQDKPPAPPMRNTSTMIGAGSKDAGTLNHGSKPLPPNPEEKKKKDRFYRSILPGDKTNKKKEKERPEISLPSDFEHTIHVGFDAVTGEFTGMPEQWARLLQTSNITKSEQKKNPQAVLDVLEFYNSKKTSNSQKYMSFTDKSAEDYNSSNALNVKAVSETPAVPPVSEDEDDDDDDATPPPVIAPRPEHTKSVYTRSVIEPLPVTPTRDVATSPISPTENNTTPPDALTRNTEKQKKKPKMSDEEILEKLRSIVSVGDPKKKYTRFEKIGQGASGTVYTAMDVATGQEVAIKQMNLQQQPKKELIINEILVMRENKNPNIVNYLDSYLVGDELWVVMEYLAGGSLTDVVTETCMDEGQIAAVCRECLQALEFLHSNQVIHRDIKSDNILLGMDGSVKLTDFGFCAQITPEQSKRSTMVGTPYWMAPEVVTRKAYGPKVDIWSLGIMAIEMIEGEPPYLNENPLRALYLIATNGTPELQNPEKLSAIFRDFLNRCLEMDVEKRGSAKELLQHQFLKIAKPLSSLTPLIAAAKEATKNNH
UniProt O96013: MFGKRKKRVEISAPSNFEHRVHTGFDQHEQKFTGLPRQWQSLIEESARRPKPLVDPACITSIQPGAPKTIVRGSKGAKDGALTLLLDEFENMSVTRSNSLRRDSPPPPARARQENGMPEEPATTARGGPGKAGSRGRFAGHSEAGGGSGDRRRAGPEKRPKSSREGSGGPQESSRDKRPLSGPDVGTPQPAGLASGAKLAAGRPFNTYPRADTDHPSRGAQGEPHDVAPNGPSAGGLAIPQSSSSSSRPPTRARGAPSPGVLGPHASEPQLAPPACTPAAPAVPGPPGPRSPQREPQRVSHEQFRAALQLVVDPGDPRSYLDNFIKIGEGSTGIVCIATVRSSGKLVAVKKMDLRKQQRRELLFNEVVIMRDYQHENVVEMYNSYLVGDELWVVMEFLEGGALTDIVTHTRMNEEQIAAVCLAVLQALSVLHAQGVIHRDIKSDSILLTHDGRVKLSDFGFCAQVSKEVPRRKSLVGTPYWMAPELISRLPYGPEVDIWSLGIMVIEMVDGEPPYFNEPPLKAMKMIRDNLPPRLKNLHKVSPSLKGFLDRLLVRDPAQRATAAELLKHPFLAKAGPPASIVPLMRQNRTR
UniProt O00401: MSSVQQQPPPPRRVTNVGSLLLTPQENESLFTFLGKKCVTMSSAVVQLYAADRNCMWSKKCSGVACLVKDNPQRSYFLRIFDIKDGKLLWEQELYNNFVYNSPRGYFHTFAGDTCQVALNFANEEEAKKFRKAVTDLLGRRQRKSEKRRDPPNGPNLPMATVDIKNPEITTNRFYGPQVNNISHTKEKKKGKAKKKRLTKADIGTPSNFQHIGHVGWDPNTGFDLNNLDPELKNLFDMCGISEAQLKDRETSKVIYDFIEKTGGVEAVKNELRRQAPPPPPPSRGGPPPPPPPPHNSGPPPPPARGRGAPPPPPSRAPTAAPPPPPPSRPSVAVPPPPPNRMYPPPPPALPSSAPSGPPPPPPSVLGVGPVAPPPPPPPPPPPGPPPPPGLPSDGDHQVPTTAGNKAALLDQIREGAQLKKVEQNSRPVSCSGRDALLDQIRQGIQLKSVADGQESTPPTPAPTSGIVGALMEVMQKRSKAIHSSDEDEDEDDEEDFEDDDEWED
UniProt Q07912: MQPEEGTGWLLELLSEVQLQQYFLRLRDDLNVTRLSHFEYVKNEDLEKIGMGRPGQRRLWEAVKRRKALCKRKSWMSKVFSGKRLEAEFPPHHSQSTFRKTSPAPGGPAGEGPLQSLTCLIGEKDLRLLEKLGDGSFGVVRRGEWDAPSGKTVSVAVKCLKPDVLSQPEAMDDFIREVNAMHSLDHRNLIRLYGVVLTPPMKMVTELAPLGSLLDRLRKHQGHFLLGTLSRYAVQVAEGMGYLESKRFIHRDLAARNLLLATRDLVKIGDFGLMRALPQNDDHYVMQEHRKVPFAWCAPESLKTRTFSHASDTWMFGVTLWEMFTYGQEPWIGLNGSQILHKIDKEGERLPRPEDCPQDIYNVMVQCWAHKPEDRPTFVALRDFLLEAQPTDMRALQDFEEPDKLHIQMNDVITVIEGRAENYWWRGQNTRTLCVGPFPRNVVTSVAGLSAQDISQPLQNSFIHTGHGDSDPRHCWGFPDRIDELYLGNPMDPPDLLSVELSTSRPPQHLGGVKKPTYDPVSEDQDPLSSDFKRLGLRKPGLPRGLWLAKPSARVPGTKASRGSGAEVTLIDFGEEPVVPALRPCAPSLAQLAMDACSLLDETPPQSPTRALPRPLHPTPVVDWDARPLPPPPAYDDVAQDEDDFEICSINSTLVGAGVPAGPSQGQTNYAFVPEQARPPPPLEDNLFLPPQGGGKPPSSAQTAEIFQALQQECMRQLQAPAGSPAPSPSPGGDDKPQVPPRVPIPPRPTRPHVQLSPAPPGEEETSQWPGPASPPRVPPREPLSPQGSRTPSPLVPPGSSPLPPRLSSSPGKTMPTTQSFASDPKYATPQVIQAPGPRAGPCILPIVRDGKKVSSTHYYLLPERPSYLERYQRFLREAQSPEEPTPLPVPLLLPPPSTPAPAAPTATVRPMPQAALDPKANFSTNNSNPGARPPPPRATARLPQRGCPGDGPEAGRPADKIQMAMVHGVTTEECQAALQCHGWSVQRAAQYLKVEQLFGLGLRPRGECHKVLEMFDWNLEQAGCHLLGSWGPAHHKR

Legend:
[1] = biological target: TOMM20-mTurquoise2-Cdc42(G12V)-ΔCaaX (UniProt P60953)
[2] = biological target: H2A-mTurquoise2-Cdc42(G12V)-ΔCaaX (UniProt P60953)
[3] = biological target: TOMM20-mTurquoise2-Cdc42(G12V)-ΔCaaX (UniProt P60953); remark: listed apart in the source
[4] = biological target: H2A-mTurquoise2-RhoA(G14V)-ΔCaaX (UniProt P61586)

Molecule | binding [1] | binding [2] | binding [3] | binding [4]
mScarlet-I-WASp (full length WASp) (from UniProt P42768 1-502) | binds |  |  | 
mScarlet-I-WASp(CRIB) (from UniProt P42768 238-251) (domain or fragment) | binds | binds | binds | 
dimericTomato-WASp(CRIB) (from UniProt P42768 238-251) (domain or fragment) |  |  |  | no binding
mScarlet-I-Pak1(CRIB) (from UniProt Q13153 75-88) (domain or fragment) | binds | binds | binds | 
ISAPSNFEHRVHTG (domain or fragment, UniProt O96013 11-24) [mScarlet-I-Pak4(CRIB)] |  | binds | binds | 
IGTPSNFQHIGHVG (domain or fragment, UniProt O00401 203-216) [mScarlet-I-N-WASP(CRIB)] |  | binds | binds | 
ISQPLQNSFIHTG (domain or fragment, UniProt Q07912 454-466) [mScarlet-I-TNK2(CRIB)] |  | binds | binds | 
